# Assay results: paper doi:10.1101/2024.04.18.590116 (bioRxiv, 2024)
# These are yes or no findings as the source states them, for the method shown. For part of these data: Binding seen in cells or lysates may run through a third protein. Some binding calls cover weakened binding; strength is not graded here. Where a sequence is shown, tags or fusion partners need not be part of it.
# T1: KRP3 fused to the GAL4 DNA binding domain (rice (Oryza sativa)) (UniProt Q2R185)
# T1 sequence: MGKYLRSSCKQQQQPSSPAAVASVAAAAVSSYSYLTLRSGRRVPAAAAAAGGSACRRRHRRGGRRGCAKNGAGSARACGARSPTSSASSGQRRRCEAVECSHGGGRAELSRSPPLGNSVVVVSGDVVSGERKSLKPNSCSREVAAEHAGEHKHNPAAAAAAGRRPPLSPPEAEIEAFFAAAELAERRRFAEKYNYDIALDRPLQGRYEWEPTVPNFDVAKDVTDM
# T2: KRP3 cloned with the C-terminal domain of firefly luciferase (rice (Oryza sativa)) (UniProt Q2R185)
# T2 sequence: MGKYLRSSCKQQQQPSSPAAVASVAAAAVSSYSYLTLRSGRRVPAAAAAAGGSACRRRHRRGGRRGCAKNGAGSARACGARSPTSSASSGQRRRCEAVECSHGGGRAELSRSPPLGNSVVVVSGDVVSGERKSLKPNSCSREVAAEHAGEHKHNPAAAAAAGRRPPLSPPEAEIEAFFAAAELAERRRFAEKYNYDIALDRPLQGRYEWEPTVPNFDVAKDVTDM
# T3: KRP3 cloned with nYFP fraction (rice (Oryza sativa)) (UniProt Q2R185)
# T3 sequence: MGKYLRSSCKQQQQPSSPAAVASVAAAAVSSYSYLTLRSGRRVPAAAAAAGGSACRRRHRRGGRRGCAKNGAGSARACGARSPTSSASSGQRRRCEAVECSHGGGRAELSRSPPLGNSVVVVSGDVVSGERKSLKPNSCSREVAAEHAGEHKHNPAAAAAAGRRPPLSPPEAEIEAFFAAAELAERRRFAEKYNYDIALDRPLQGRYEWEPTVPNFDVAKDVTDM
# Key:
# [1] = target: T1, KRP3 fused to the GAL4 DNA binding domain (rice (Oryza sativa)); test: two-hybrid
# [2] = target: T2, KRP3 cloned with the C-terminal domain of firefly luciferase (rice (Oryza sativa)); test: split reporter
# [3] = target: T3, KRP3 cloned with nYFP fraction (rice (Oryza sativa)); test: split reporter
binder,measurement,setting,value
"MPK3 fused to the GAL4 activation domain (enzyme, UniProt Q10N20 1-369) MDGAPVAEFRPTMTHGGRYLLYDIFGNKFEVTNKYQPPIMPIGRGAYGIVCSVMNFETREMVAIKKIANAFNNDMDAKRTLREIKLLRHLDHENIIGIRDVIPPPIPQAFNDVYIATELMDTDLHHIIRSNQELSEEHCQYFLYQILRGLKYIHSANVIHRDLKPSNLLLNANCDLKICDFGLARPSSESDMMTEYVVTRWYRAPELLLNSTDYSAAIDVWSVGCIFMELINRQPLFPGRDHMHQMRLITEVIGTPTDDELGFIRNEDARKYMRHLPQYPRRTFASMFPRVQPAALDLIERMLTFNPLQRITVEEALDHPYLERLHDIADEPICLEPFSFDFEQKALNEDQMKQLIFNEAIEMNPNIRY",binding,[1],binds
"MPK3 cloned with the N-terminal domain of firefly luciferase (enzyme, UniProt Q10N20 1-369) MDGAPVAEFRPTMTHGGRYLLYDIFGNKFEVTNKYQPPIMPIGRGAYGIVCSVMNFETREMVAIKKIANAFNNDMDAKRTLREIKLLRHLDHENIIGIRDVIPPPIPQAFNDVYIATELMDTDLHHIIRSNQELSEEHCQYFLYQILRGLKYIHSANVIHRDLKPSNLLLNANCDLKICDFGLARPSSESDMMTEYVVTRWYRAPELLLNSTDYSAAIDVWSVGCIFMELINRQPLFPGRDHMHQMRLITEVIGTPTDDELGFIRNEDARKYMRHLPQYPRRTFASMFPRVQPAALDLIERMLTFNPLQRITVEEALDHPYLERLHDIADEPICLEPFSFDFEQKALNEDQMKQLIFNEAIEMNPNIRY",binding,[2],binds
"MPK3 cloned with cYFP fraction (enzyme, UniProt Q10N20 1-369) MDGAPVAEFRPTMTHGGRYLLYDIFGNKFEVTNKYQPPIMPIGRGAYGIVCSVMNFETREMVAIKKIANAFNNDMDAKRTLREIKLLRHLDHENIIGIRDVIPPPIPQAFNDVYIATELMDTDLHHIIRSNQELSEEHCQYFLYQILRGLKYIHSANVIHRDLKPSNLLLNANCDLKICDFGLARPSSESDMMTEYVVTRWYRAPELLLNSTDYSAAIDVWSVGCIFMELINRQPLFPGRDHMHQMRLITEVIGTPTDDELGFIRNEDARKYMRHLPQYPRRTFASMFPRVQPAALDLIERMLTFNPLQRITVEEALDHPYLERLHDIADEPICLEPFSFDFEQKALNEDQMKQLIFNEAIEMNPNIRY",binding,[3],binds
